The list shows a part of the results.

Chains of the proteins cited; added tags and fusions are not shown.
UniProt Q0JBA9, entry or part of it: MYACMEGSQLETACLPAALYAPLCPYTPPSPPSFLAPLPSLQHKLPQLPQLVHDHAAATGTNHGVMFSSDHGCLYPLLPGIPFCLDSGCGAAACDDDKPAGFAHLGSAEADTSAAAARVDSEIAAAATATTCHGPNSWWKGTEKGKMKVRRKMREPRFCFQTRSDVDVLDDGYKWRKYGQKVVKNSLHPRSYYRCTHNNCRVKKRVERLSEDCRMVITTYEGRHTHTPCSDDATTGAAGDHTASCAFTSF

This assay deals with OsWRKY34 (Oryza sativa, UniProt Q0JBA9 1-250). The experiment in a line: protein-binding microarray (RPBM); PBS, 2% BSA, 51.3 ng/ul salmon testes DNA, 50 uM zinc acetate, 200 nM TF, 25 C, 1 h; high values mean tight binding. The conditions noted are these: protein: recombinant; tags: N-terminal polyhistidine and DsRed monomer fusion (pET32a); label: CyDye5-dUTP incorporated in the synthesized complementary strand; 3' TTTTT single-stranded linker to array surface; dsDNA, one strand shown. In outline: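 A custom Agilent array was converted to double-stranded form by primer extension with Cy5-dUTP and blocked with 2% BSA. Protein at 200 nM in PBS with 2% BSA, salmon testes DNA and 50 µM zinc acetate was applied for 1 h at 25 °C, followed by washing. The proteins were polyhistidine–DsRed N-terminal fusions of transcription factors, expressed in E. coli BL21-CodonPlus and Ni–NTA-purified. The binding signal is per-feature fluorescence intensity (arbitrary units) from an Axon 4000B scanner.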
For the sequence “ATCGAGATAGATGCCACTCAACGCACACCATGCACCGTACCGGAGTCACCTAGTGCAG”, the binding signal was 8530 fluorescence intensity (a.u.). To “TTCCCAGACTTCACCAAATCCTAGATCTACTCCTCTTCCTCGGAGTCACCTAGTGCAG” belongs 8790 fluorescence intensity (a.u.); to “AAACAGAGGTTTTTCTCCTGTACATGTGTCCCATGCCAACCGGAGTCACCTAGTGCAG”, 9880 fluorescence intensity (a.u.); to “TACTTCGCATCATACCTCGCCCTTTTAACCTTCACTGCTACGGAGTCACCTAGTGCAG”, 10500 fluorescence intensity (a.u.).

As for “CTGGTGGTAGTGTTGGGGCGGGGCCTCGCCCACTTGTTCCCGGAGTCACCTAGTGCAG”, the binding signal was 8910 fluorescence intensity (a.u.). To “GTTCTTCTGTGCAGTTTAGCCTAAATCTGTTCAGTTTTACCGGAGTCACCTAGTGCAG” belongs 8050 fluorescence intensity (a.u.); to “TCATCTTGCTTTCCCCTTCTTCGCCCACGCGGCCGCGGCCCGGAGTCACCTAGTGCAG”, 8620 fluorescence intensity (a.u.); to “CCTCGACCACCCTCGCCGGAGCCCTCACGACCTCTGCCCTCGGAGTCACCTAGTGCAG”, 8050 fluorescence intensity (a.u.). To “AGGTTTGCTCCCAAATCTGCACTGGGTCAATGTTTTCTCCCGGAGTCACCTAGTGCAG” belongs 9840 fluorescence intensity (a.u.).

“TCTCTTCCGGTCGGAAGCTTGCTTTCCTTTTCTTCTTCTTCGGAGTCACCTAGTGCAG”: the binding signal was 8360 fluorescence intensity (a.u.). To “GATTCTTCTGTTATTTGTTTGTCCTTCTATCTCCAAATCTCGGAGTCACCTAGTGCAG” belongs 8660 fluorescence intensity (a.u.); to “GATTCAATCTTTCGCTATTTTTTTCCTTTCCTCTGAAATTCGGAGTCACCTAGTGCAG”, 10500 fluorescence intensity (a.u.); to “GCTGCTGGTGAGAGTGGTGATCGCGTACCTTGTGTTTTGCCGGAGTCACCTAGTGCAG”, 8110 fluorescence intensity (a.u.). For the sequence “TTTTGTCCTTCAACCTGTTGAAGTTGTTTTCAGTTGTTCACGGAGTCACCTAGTGCAG”, the binding signal is 11600 fluorescence intensity (a.u.).

For the sequence “GTTTTGTATAATTTAGGGGCGGAGATTTTTGGTTTTGTGGCGGAGTCACCTAGTGCAG”, the binding signal was 9700 fluorescence intensity (a.u.). To “ACTGTTCATCACACTCACACCTGCAGCCAAAAAGCTTGAGCGGAGTCACCTAGTGCAG” belongs 9120 fluorescence intensity (a.u.). To “GCTGCCTCTGGTTTGCTCTGCTCTCTACCGGCTTAACCACCGGAGTCACCTAGTGCAG” belongs 9320 fluorescence intensity (a.u.). Then “AGCATCCAACCGTCCATACCGCTCGTTGCCCTACTCTTTGCGGAGTCACCTAGTGCAG”, with 8230 fluorescence intensity (a.u.). In the case of “GTGTGTGGTGTGGTGGTCCTCGCGCGCAATTGCTTTCCGTCGGAGTCACCTAGTGCAG”, the binding signal is 10200 fluorescence intensity (a.u.).

With “TCTCTCTCTCTCCTCTCTCTCTCTCTCTTCAATCCTTCATCGGAGTCACCTAGTGCAG”, the binding signal is 8090 fluorescence intensity (a.u.). To “ATTATTTTGTGCATTATTTTGGATTTGTGTTGCGCAGTAGCGGAGTCACCTAGTGCAG” belongs 10400 fluorescence intensity (a.u.); to “TAGCTTGTGCGCGTTGTGTTTTGTGCTCTCCTTTTGTCAGCGGAGTCACCTAGTGCAG”, 11500 fluorescence intensity (a.u.). Then “CTTGCCGACGCCCGGTGCCTGCCTCGTCCCGGGTATGTATCGGAGTCACCTAGTGCAG”, with 8230 fluorescence intensity (a.u.). For “TTCCTGTGTTACTTGTATTTTATCTATTGTCTATCTCCTGCGGAGTCACCTAGTGCAG”, the binding signal is 8980 fluorescence intensity (a.u.). Then “TACAGATCTGTAGCCCGCTGCTTTTCTCTCTCTTCCTTTACGGAGTCACCTAGTGCAG”, with 8100 fluorescence intensity (a.u.). Then “CCCGTGCCCTATTGCGCTTCCTCGCTTCCATTTGTCAACTCGGAGTCACCTAGTGCAG”, with 8920 fluorescence intensity (a.u.). To “GATTGCCCTCTTTTAAAGTTGCATAGATGTGGTTCTTCCTCGGAGTCACCTAGTGCAG” belongs 8090 fluorescence intensity (a.u.). As for “GTGGGTGGTGGTTTTTTTTTCCTTTTTCCTGGTTACGACCCGGAGTCACCTAGTGCAG”, the binding signal was 23700 fluorescence intensity (a.u.). Then “GACACGTGTCATCATCCTACCATAGTTGCTACTCCCTATTCGGAGTCACCTAGTGCAG”, with 8890 fluorescence intensity (a.u.). For the sequence “AGTGTCTCATCCATTTCACAGTTATTTCGTGCTCACTTATCGGAGTCACCTAGTGCAG”, the binding signal was 12300 fluorescence intensity (a.u.). Then “TTATCAAATATTCCATCCGTCTTTTTTGATATTTTAATTTCGGAGTCACCTAGTGCAG”, with 9840 fluorescence intensity (a.u.); and “ATATATATATATATATATATATATATATATATGTAAAATTCGGAGTCACCTAGTGCAG”, with 11700 fluorescence intensity (a.u.); and “TCCCCAATCCCTAAAATCCCCGTACGCCGCCCGCTTCTCTCGGAGTCACCTAGTGCAG”, with 9000 fluorescence intensity (a.u.). To “TCTCCAATCTCCATGGCCTCGACACTGTTCTTCGTTTGCACGGAGTCACCTAGTGCAG” belongs 9650 fluorescence intensity (a.u.); to “GCCTCCATCCGGCGAGTCCATTTTTCCCCTTTCCCCTCTCCGGAGTCACCTAGTGCAG”, 9380 fluorescence intensity (a.u.). Then “GCTCCTTGCCATCCACGCATGCACGCGGTTCCGAGCTCGTCGGAGTCACCTAGTGCAG”, with 8150 fluorescence intensity (a.u.); and “CATTGCTCTCAAATCTGGCTCCGTTCATGCCATGCATACTCGGAGTCACCTAGTGCAG”, with 9970 fluorescence intensity (a.u.); and “CTACAAGTCACATATTTCGTCCATTCAAGTTTATTTTTTCCGGAGTCACCTAGTGCAG”, with 9490 fluorescence intensity (a.u.). On to “GGGAGGGGAGGACGGCGACGGCGGCGGCGGCGGGGTGTGGCGGAGTCACCTAGTGCAG”, for which the binding signal is 10800 fluorescence intensity (a.u.). Take “CGACATGTGGCAGGGAGGGTGGTGTTTTTCACGCGCGGTCCGGAGTCACCTAGTGCAG”: the binding signal is 9940 fluorescence intensity (a.u.). Take “ATTTGATTTTCTGTCTTTTCTTCAACTCGATTTTGTTAAACGGAGTCACCTAGTGCAG”: the binding signal was 10300 fluorescence intensity (a.u.). As for “ACCCTTTTACAACTTTTTCATGTCAACACCTGTACAGAAACGGAGTCACCTAGTGCAG”, the binding signal is 9280 fluorescence intensity (a.u.). Then “CAAGACTTTCTGCAATTGCCCTGTACTAATTTTGATCTAACGGAGTCACCTAGTGCAG”, with 10300 fluorescence intensity (a.u.); and “ATCGCTGCCTCCTCCTCTGCTTCGTCGCCGCGGCGGCATCCGGAGTCACCTAGTGCAG”, with 8970 fluorescence intensity (a.u.); and “GCCCACATGTCATCTCTCCTATCTCTCTTCTCTTTCTATCCGGAGTCACCTAGTGCAG”, with 11300 fluorescence intensity (a.u.). Then “AGGATTCTTTTAAACGTATTTTTGAGGGAGGGGAACAGTCCGGAGTCACCTAGTGCAG”, with 8830 fluorescence intensity (a.u.); and “GATCTTATTGTGGGCGGCTGGCTGACTGTTGCTGTTGTATCGGAGTCACCTAGTGCAG”, with 9690 fluorescence intensity (a.u.); and “CATACATTGCCTCGTTTTTCTCTATAGACTATCTCTAAGTCGGAGTCACCTAGTGCAG”, with 8460 fluorescence intensity (a.u.).

Take “ATCTTGCATCATTCATGTCTTGTCCCCTTAAACTTTTTTCCGGAGTCACCTAGTGCAG”: the binding signal was 10100 fluorescence intensity (a.u.). To “GCCATCTTGTTCTTGTCTTTGATTCTGTTCTTTGAGTTCACGGAGTCACCTAGTGCAG” belongs 15300 fluorescence intensity (a.u.); to “CCGCTCCAAATCCAAATCTCACCTTGAATTCTTCTCCTTCCGGAGTCACCTAGTGCAG”, 8320 fluorescence intensity (a.u.); to “GTCCTACGCATGGCCACTCTGCTCATATTTGTTTGGCTCCCGGAGTCACCTAGTGCAG”, 9840 fluorescence intensity (a.u.). Then “CACACCCTACACGCACCCCATAATATGGGCCTTACAATCTCGGAGTCACCTAGTGCAG”, with 8600 fluorescence intensity (a.u.); and “TCAGTTTTGTTCTAGCCACACTTTGTCACCATTTGCCAATCGGAGTCACCTAGTGCAG”, with 10900 fluorescence intensity (a.u.).

The values are drawn from PMC7819943, “Rice protein-binding microarrays: a tool to detect cis-acting elements near promoter regions in rice”.
